Paper doi:10.1101/2020.07.23.218024
These are yes or no findings as the source states them, for the method shown. Binding can be weak; no strength is given.

The chains behind the UniProt entries cited, without tags or fusion partners. Where a name states a change or a piece, a line headed by the entry shows the natural chain unless it says otherwise. Residues count along the entry.
human ß-tubulin peptides of the region aa 187–211 (P07437, residues 187-211): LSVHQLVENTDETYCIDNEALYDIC
human ß-tubulin peptides of the region aa 391–431 (P07437, residues 391-431): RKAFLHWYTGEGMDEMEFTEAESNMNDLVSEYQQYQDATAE
UniProt O75381: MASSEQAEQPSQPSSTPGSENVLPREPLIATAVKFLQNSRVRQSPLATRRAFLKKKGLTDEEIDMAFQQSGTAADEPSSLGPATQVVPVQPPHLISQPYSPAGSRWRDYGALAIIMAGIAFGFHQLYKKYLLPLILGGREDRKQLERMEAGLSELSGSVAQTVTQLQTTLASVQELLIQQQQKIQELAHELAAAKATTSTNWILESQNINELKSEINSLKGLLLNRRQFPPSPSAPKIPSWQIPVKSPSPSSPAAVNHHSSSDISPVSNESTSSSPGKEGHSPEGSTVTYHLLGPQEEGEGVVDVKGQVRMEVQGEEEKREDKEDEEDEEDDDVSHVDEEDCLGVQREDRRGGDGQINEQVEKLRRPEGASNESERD

How the values were obtained:
[1] = molecular target: human ß-tubulin peptides of the region aa 187–211 (human) (UniProt P07437); assay: peptide or protein array
[2] = molecular target: human ß-tubulin peptides of the region aa 391–431 (human) (UniProt P07437); assay: peptide or protein array

## GST-PEX14-NTD (from UniProt O75381) (domain or fragment)
[1]
  binding: binds
[2]
  binding: binds
